Reference: PMC6220335, “Molecular structure of promoter-bound yeast TFIID” (Nature Communications, 2018)
These are yes or no findings as the source states them, for the method shown. In cells and extracts the contact can be indirect. Here binding means that the protein was enriched with, or labelled near, the bait; the list need not be complete. Values belong to the binder of their own block, whether it stands above or below them.

Molecular target: Taf2 with C-terminal streptavidin-binding peptide tag, subunit of Komagataella phaffii TFIID (Komagataella phaffii) (UniProt F2QRH9)
Assay: affinity purification with mass spectrometry; TFIID purified from K. phaffii nuclear extract by the SBP tag at the C-terminus of Taf2 (streptavidin beads, 250 mM potassium acetate, elution with 10 mM biotin, 10–30% sucrose gradient); SDS-PAGE and mass spectrometry of the purified complex

binding: binds
B3: Taf5, subunit of Komagataella phaffii TFIID (natural protein, UniProt F2QWD3 1-722, looked up)
chain: MKQEPGDSSDKSAPSGSITPQPKPPQQANVSNQQPQKPQQFSAADLNRIVLEYLNKKGYHKTESMLRMESSHIPAPPTNIPTPQTTNISRPTAPGRAPEYSDDPATIKRGYSILKSWCESSLDFYRPELEKFLYPVFVHCYLDLIARGYPSHAREFYDKFSKDHSVLHEYEISKLGGISLKEHLQENDVAKIFRSHKFKVLIGRTTFNLLLYFLNENDAVGGGVVLRLINQYIEPVITTEAIAVEREGELNLSEGIVELHTLNNTSIGGEQREISSVDAFNKKPVKLGKLQVDPEYSKELEAELKLKDEHEQAAQKKVSTTLLEEYRENFKVDPSDENNPSKDTLPLPLKSAQDLRNDIAMIQDSRAKIKLSAAQASLPSVCMYTFHNTNNDLTCLKFNDDSTMVASGFQDSFIKLWSIDGSPLRSLLKNDPYNQQNNDGVAVKGSRRLVGHSGAVYGVDFSPDNRYLISCSEDKTVRLWSLDTYTCLVSYKGHSSSVWDVKFSPMGHYFATASHDQTARLWSCDHIYPLRIFAGHLNDVDCVEFHPNSTYLFTGSSDKTARMWDIARGECVRVFMGHSGAINCLAVSPDGRWLASAGEDSVVCLWDISTGRRIKAMRGHGRSSIYSLAFSREGTVLVSTGADNSVRVWDVKKNTNSPSAQPEPINDVTAQGIQKKTEDLRRRKEIVATNDHMSVYFTKKTPVYTVHFTRRNLCLAGGVFGG
notes: Taf5, TFIID subunit of the yeast Komagataella phaffii (formerly Pichia pastoris); WD40 repeat and NTD (residues 99–243) modelled in the cryo-EM map; two copies in holo-TFIID; source: endogenous, K. phaffii nuclear extract; co-purified in TFIID by SBP-tagged Taf2 (streptavidin beads, sucrose gradient)

binding: binds
B4: Taf10, subunit of Komagataella phaffii TFIID (natural protein, UniProt F2QLJ9 1-217, looked up)
chain: MSTEKLFEDLDEDSLMQDVEGGVEGSMTIEEEPEPNDEKEAPHISMPSLPEYTRKDKTLEEILEMMEDEEFTPIIPDAVTDYYLAKNGFETSDIKIKRILALATQKFISDIAQDAYEYSRIRSSSSVYTSANPQARARQLVAGQQQQQQQQPQQQQQQQPQTGASQPAPTVGGSGGGGGGGGGTSTGTNNKVVLTMDDLRSALGEYGINVKRPNFYR
notes: Taf10, TFIID subunit of the yeast Komagataella phaffii (formerly Pichia pastoris); source: endogenous, K. phaffii nuclear extract; co-purified in TFIID by SBP-tagged Taf2 (streptavidin beads, sucrose gradient)

binding: binds
B5: Taf12, subunit of Komagataella phaffii TFIID (natural protein, UniProt F2QSK7 1-609, looked up)
chain: MNQPPNQPQDNDSQVSSSGMQGGNSMNYSSSAPVNGAGQGPQPQQNSQGQNGKKPVGMQQAQIQLLARRYQLEMQKAHQLGPQTPQGAEHLQTATKIKHVLLSYQQQRQRQQGQVQGQGLSQPQGQNQAQGRVQQQTQGLSPDPGSHQGSPQFQQPHQVMMGSAQTAGTSIANPQAQSNISSQVSQMAAAKVNSASPPIPPKTVGTPTGTPVGTQPRGQVTIQQFQQVKSILEEFEKKLRTIEAAKRDQNLPEETLQKLLRQEAILKQRYAQTKATAYQMSQHLQRQQQALRAASAESAEVYVTGSASSPNMNVYNQQILTQQPQQQLQQQQLHQPQPQQPQPARQSPHLLIHQQQQQQQQQQQQQQQQQQHPVTHRPSNVSQTMPQPSQPLQSSTPSSAVGRNQSPGATPVTSVNAAAKPSPGTSSTSTLINQHILKPAPPPTEIPARLQVKPPQPAAMKIPNRPTLLGGSAISQPSLTTPVSIRPPPLEMEGDHVLQKRKLKELLRNVGADEGDGETVIDGDVEELLLDLADEFVTSVTSFACRLAKHRKVDNIDMRDVQLHLERNWNIRVPGYASDEIRSVRKFQPTAGYNQKVQGVAISKSVNKN
notes: Taf12, TFIID subunit of the yeast Komagataella phaffii (formerly Pichia pastoris); histone-fold domain modelled in the cryo-EM map; source: endogenous, K. phaffii nuclear extract; co-purified in TFIID by SBP-tagged Taf2 (streptavidin beads, sucrose gradient)

binding: binds
B6: Taf9, subunit of Komagataella phaffii TFIID (natural protein, UniProt F2QTW3 1-153, looked up)
chain: MTNEQAAIPRDVRLLHLIFATQNIYSYQDHVPLQLMDFAYRYTTGTLQDATIYSDHAHASGSHISNAGNAGTNAQLTTEDIRLAIAARTNYQFKPVPPKELLLELAAERNKKPLPAVIPTWGIRLPPEKYCLTGKDWVLEDEEEAVSYKKRKT
notes: Taf9, TFIID subunit of the yeast Komagataella phaffii (formerly Pichia pastoris); histone-fold domain modelled in the cryo-EM map; source: endogenous, K. phaffii nuclear extract; co-purified in TFIID by SBP-tagged Taf2 (streptavidin beads, sucrose gradient)

The remaining lines, values behind:

B1: Taf4, subunit of Komagataella phaffii TFIID (natural protein, UniProt F2QWX2 1-411, looked up)
chain: MSSTPDGSTPVDSGKRTSDQIDVGEYKRVKVERGNRSETVDSGLIDMSNSVGASLDIPTPDQLNPTNTGVQTPSLHQPGESISAHSLSLPGETSVGGSTGISRENTPQVRPDVSVSQSSSQLHQRNESFPGLSVSKSTTSLNKDTMFDNRKRLLGNNGANPNGQKSSDPEKLSDALTAAGVDLKEEESLLSQSTVIQQSRRQLSTLSSFLHPVHLATFMRRVMENNGLRNYVDHDTELLSYMSSACEGFMAGILTDSVILANHRKRPIKSKLKHSTTPRSDVSKVLRDIATKQKEREEQRVQKRVTLDIEGQEDDGKSKQDNEEVLHRAANATAMMMTSKSKKKKYSWMNADSGAQGGKTNSVLARGDSGIRYRDAREEPGLVLRDLLGALEGRRMCVANTVVKGYARMND
notes: Taf4, TFIID subunit of the yeast Komagataella phaffii (formerly Pichia pastoris); histone-fold domain modelled in the cryo-EM map; source: endogenous, K. phaffii nuclear extract; co-purified in TFIID by SBP-tagged Taf2 (streptavidin beads, sucrose gradient)
binding: binds

B2: Taf3, subunit of Komagataella phaffii TFIID (protein, UniProt F2QPA6 1-314)
chain: MPKSSFYFSYLRITIIQLLKSQGFDRCSNTVIDALTDTTIRFLGLLLEKTAKYTASRGESLDDVQIQDISEALTELKIITPCNLLDPYDVSPDNLQGIQNFESWFIGPYPDRARQVARPSKQYIAEVNESLDPSTQFRSKNRIPEYMNSFKKQEEQIDNTGDFPLDEDWIRFNLRVELKRNQAHDSKLKNSVLQPYISNVLEDVQRKNGVNGNGSTDKYATNYDFIITGPTPDKLMQYLPYINSDDEEDDDSYEEENEDSEDQDEDDGDRNNEHNKNDEYGNENQPEQTTPDFDYEEHNDEDDNRQKLKIRLNI
binding: binds

B7: Taf6, subunit of Komagataella phaffii TFIID (natural protein, UniProt F2QMA7 1-485, looked up)
chain: MSKNSQRSSIPTSHTLWSPSDTVKDAAESLGIFNLNEEAAKNLAMDIEYRIHEILDQASKFMRHGKRRTLHTSDIDRALKVLNLEPLYGYDVSRPLVFKEALVGAGQNLYYVDDDEVDFEKLINEPLPKVPRFSTFTAHWLAIEGVQPAIPQNPSPNDIKNILPINRGSMENMFSLINDEVKEDTNEEFTSTGPSVSSNISNQKQGLEVKPLVKHVLSRELQLYFDKIVEVLLNQEETKEAELLRNSALQSVRADPGLHQLVPYFIQFISETITKNLKNISLLSTMLELIYSLLMNESLFLEPYVHAIIPCILTLLLAKKIGNVDDELQKQQQLALRELSASLLERVIEDFGSSYSTLKPRITRTLLRAFVSVNNTTPGTQYGALLGLRGLGSEVIRIVVLGNVINWSSTFLEKLQQEDQVFLIDTLIETLRVLTKEGKLVKDMKTENGIDNERLKQRVGDLIADRIQACDDAQDIYWGIFFGEV
notes: Taf6, TFIID subunit of the yeast Komagataella phaffii (formerly Pichia pastoris); HEAT repeats (residues 213–486) and histone-fold domain modelled in the cryo-EM map; two copies in holo-TFIID; source: endogenous, K. phaffii nuclear extract; co-purified in TFIID by SBP-tagged Taf2 (streptavidin beads, sucrose gradient)
binding: binds
